Test results reported in article PMC12579238.
These are yes or no findings as the source states them, for the method shown. Binding seen in cells or lysates may run through a third protein. A yes stands for co-enrichment or nearness to the bait. Other partners may have been found.

T1: CLN7 (human (endogenous in SH-SY5Y)) (UniProt Q8NHS3)
T1 sequence: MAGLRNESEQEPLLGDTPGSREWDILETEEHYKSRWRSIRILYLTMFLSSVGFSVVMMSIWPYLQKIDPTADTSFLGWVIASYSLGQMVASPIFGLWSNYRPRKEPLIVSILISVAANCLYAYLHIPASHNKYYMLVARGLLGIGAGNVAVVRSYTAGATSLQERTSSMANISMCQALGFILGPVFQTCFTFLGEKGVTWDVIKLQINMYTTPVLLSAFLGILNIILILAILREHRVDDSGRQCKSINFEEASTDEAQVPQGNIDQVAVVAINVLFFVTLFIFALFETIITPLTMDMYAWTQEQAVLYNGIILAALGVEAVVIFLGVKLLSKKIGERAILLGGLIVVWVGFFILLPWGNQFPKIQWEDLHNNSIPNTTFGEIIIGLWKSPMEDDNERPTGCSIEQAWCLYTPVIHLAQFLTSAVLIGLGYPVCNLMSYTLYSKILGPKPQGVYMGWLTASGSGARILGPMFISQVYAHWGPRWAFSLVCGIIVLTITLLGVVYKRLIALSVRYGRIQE

B1: HPS5 (protein, UniProt Q9UPZ3 1-1129)
chain: MAFVPVIPESYSHVLAEFESLDPLLSALRLDSSRLKCTSIAVSRKWLALGSSGGGLHLIQKEGWKHRLFLSHREGAISQVACCLHDDDYVAVATSQGLVVVWELNQERRGKPEQMYVSSEHKGRRVTALCWDTAILRVFVGDHAGKVSAIKLNTSKQAKAAAAFVMFPVQTITTVDSCVVQLDYLDGRLLISSLTRSFLCDTEREKFWKIGNKERDGEYGACFFPGRCSGGQQPLIYCARPGSRMWEVNFDGEVISTHQFKKLLSLPPLPVITLRSEPQYDHTAGSSQSLSFPKLLHLSEHCVLTWTERGIYIFIPQNVQVLLWSEVKDIQDVAVCRNELFCLHLNGKVSHLSLISVERCVERLLRRGLWNLAARTCCLFQNSVIASRARKTLTADKLEHLKSQLDHGTYNDLISQLEELILKFEPLDSACSSRRSSISSHESFSILDSGIYRIISSRRGSQSDEDSCSLHSQTLSEDERFKEFTSQQEEDLPDQCCGSHGNEDNVSHAPVMFETDKNETFLPFGIPLPFRSPSPLVSLQAVKESVSSFVRKTTEKIGTLHTSPDLKVRPELRGDEQSCEEDVSSDTCPKEEDTEEEKEVTSPPPEEDRFQELKVATAEAMTKLQDPLVLFESESLRMVLQEWLSHLEKTFAMKDFSGVSDTDNSSMKLNQDVLLVNESKKGILDEDNEKEKRDSLGNEESVDKTACECVRSPRESLDDLFQICSPCAIASGLRNDLAELTTLCLELNVLNSKIKSTSGHVDHTLQQYSPEILACQFLKKYFFLLNLKRAKESIKLSYSNSPSVWDTFIEGLKEMASSNPVYMEMEKGDLPTRLKLLDDEVPFDSPLLVVYATRLYEKFGESALRSLIKFFPSILPSDIIQLCHHHPAEFLAYLDSLVKSRPEDQRSSFLESLLQPESLRLDWLLLAVSLDAPPSTSTMDDEGYPRPHSHLLSWGYSQLILHLIKLPADFITKEKMTDICRSCGFWPGYLILCLELERRREAFTNIVYLNDMSLMEGDNGWIPETVEEWKLLLHLIQSKSTRPAPQESLNGSLSDGPSPINVENVALLLAKAMGPDRAWSLLQECGLALELSEKFTRTCDILRIAEKRQRALIQSMLEKCDRFLWSQQA
B2: KIF7 (protein, UniProt Q2M1P5 1-1343)
chain: MGLEAQRLPGAEEAPVRVALRVRPLLPKELLHGHQSCLQVEPGLGRVTLGRDRHFGFHVVLAEDAGQEAVYQACVQPLLEAFFEGFNATVFAYGQTGSGKTYTMGEASVASLLEDEQGIVPRAMAEAFKLIDENDLLDCLVHVSYLEVYKEEFRDLLEVGTASRDIQLREDERGNVVLCGVKEVDVEGLDEVLSLLEMGNAARHTGATHLNHLSSRSHTVFTVTLEQRGRAPSRLPRPAPGQLLVSKFHFVDLAGSERVLKTGSTGERLKESIQINSSLLALGNVISALGDPQRRGSHIPYRDSKITRILKDSLGGNAKTVMIACVSPSSSDFDETLNTLNYASRAQNIRNRATVNWRPEAERPPEETASGARGPPRHRSETRIIHRGRRAPGPATASAAAAMRLGAECARYRACTDAAYSLLRELQAEPGLPGAAARKVRDWLCAVEGERSALSSASGPDSGIESASVEDQAAQGAGGRKEDEGAQQLLTLQNQVARLEEENRDFLAALEDAMEQYKLQSDRLREQQEEMVELRLRLELVRPGWGGPRLLNGLPPGSFVPRPHTAPLGGAHAHVLGMVPPACLPGDEVGSEQRGEQVTNGREAGAELLTEVNRLGSGSSAASEEEEEEEEPPRRTLHLRRNRISNCSQRAGARPGSLPERKGPELCLEELDAAIPGSRAVGGSKARVQARQVPPATASEWRLAQAQQKIRELAINIRMKEELIGELVRTGKAAQALNRQHSQRIRELEQEAEQVRAELSEGQRQLRELEGKELQDAGERSRLQEFRRRVAAAQSQVQVLKEKKQATERLVSLSAQSEKRLQELERNVQLMRQQQGQLQRRLREETEQKRRLEAEMSKRQHRVKELELKHEQQQKILKIKTEEIAAFQRKRRSGSNGSVVSLEQQQKIEEQKKWLDQEMEKVLQQRRALEELGEELHKREAILAKKEALMQEKTGLESKRLRSSQALNEDIVRVSSRLEHLEKELSEKSGQLRQGSAQSQQQIRGEIDSLRQEKDSLLKQRLEIDGKLRQGSLLSPEEERTLFQLDEAIEALDAAIEYKNEAITCRQRVLRASASLLSQCEMNLMAKLSYLSSSETRALLCKYFDKVVTLREEQHQQQIAFSELEMQLEEQQRLVYWLEVALERQRLEMDRQLTLQQKEHEQNMQLLLQQSRDHLGEGLADSRRQYEARIQALEKELGRYMWINQELKQKLGGVNAVGHSRGGEKRSLCSEGRQAPGNEDELHLAPELLWLSPLTEGAPRTREETRDLVHAPLPLTWKRSSLCGEEQGSPEELRQREAAEPLVGRVLPVGEAGLPWNFGPLSKPRRELRRASPGMIDVRKNPL
B3: LRCH2 (protein, UniProt Q5VUJ6 1-765)
chain: MAASQGGGGNSGGGGCGGGGSSGGCGTAGGGGGGAGGGGGGGGGTLVVPIPVPTLFGQPFPNGPPWNPGSLQPQHTVRSLDRALEEAGSSGILSLSGRKLRDFPGSGYDLTDTTQADLSRNRFTEIPSDVWLFAPLETLNLYHNCIKTIPEAIKNLQMLTYLNISRNLLSTLPKYLFDLPLKVLVVSNNKLVSIPEEIGKLKDLMELDISCNEIQVLPQQMGKLHSLRELNIRRNNLHVLPDELGDLPLVKLDFSCNKVTEIPVCYRKLHHLQVIILDNNPLQVPPAQICLKGKVHIFKYLNIQACCRMDKKPDSLDLPSLSKRMPSQPLTDSMEDFYPNKNHGPDSGIGSDNGEKRLSTTEPSDDDTVSLHSQVSESNREQTSRNDSHIIGSKTDSQKDQEVYDFVDPNTEDVAVPEQGNAHIGSFVSFFKGKEKCSEKSRKNEELGDEKRLEKEQLLAEEEDDDLKEVTDLRKIAAQLLQQEQKNRILNHSTSVMRNKPKQTVECEKSVSADEVNSPLSPLTWQPLENQKDQIDEQPWPESHPIIWQSEERRRSKQIRKEYFKYKSMRKSSSGNENDEQDSDNANMSTQSPVSSEEYDRTDGFSHSPFGLKPRSAFSRSSRQEYGAADPGFTMRRKMEHLREEREQIRQLRNNLESRLKVILPDDIGAALMDGVVLCHLANHIRPRSVASIHVPSPAVPKLSMAKCRRNVENFLDACKKLGVSQERLCLPHHILEERGLVKVGVTVQALLELPTTKASQLSVA
B4: LRCH3 (protein, UniProt Q96II8 1-777)
chain: MAAAGLVAVAAAAEYSGTVASGGNLPGVHCGPSSGAGPGFGPGSWSRSLDRALEEAAVTGVLSLSGRKLREFPRGAANHDLTDTTRADLSRNRLSEIPIEACHFVSLENLNLYQNCIRYIPEAILNLQALTFLNISRNQLSTLPVHLCNLPLKVLIASNNKLVSLPEEIGHLRHLMELDVSCNEIQTIPSQIGNLEALRDLNVRRNHLVHLPEELAELPLIRLDFSCNKITTIPVCYRNLRHLQTITLDNNPLQSPPAQICIKGKVHIFKYLNIQACKIAPDLPDYDRRPLGFGSCHEELYSSRPYGALDSGFNSVDSGDKRWSGNEPTDEFSDLPLRVAEITKEQRLRRESQYQENRGSLVVTNGGVEHDLDQIDYIDSCTAEEEEAEVRQPKGPDPDSLSSQFMAYIEQRRISHEGSPVKPVAIREFQKTEDMRRYLHQNRVPAEPSSLLSLSASHNQLSHTDLELHQRREQLVERTRREAQLAALQYEEEKIRTKQIQRDAVLDFVKQKASQSPQKQHPLLDGVDGECPFPSRRSQHTDDSALCMSLSGLNQVGCAATLPHSSAFTPLKSDDRPNALLSSPATETVHHSPAYSFPAAIQRNQPQRPESFLFRAGVRAETNKGHASPLPPSAAPTTDSTDSITGQNSRQREEELELIDQLRKHIEYRLKVSLPCDLGAALTDGVVLCHLANHVRPRSVPSIHVPSPAVPKLTMAKCRRNVENFLEACRKIGVPQEQLCLPLHILEEKGLSQVAVTVQALLELAPPKQQQHQLSAV
B5: LZTS2 (protein, UniProt Q9BRK4 1-669)
chain: MAIVQTLPVPLEPAPEAATAPQAPVMGSVSSLISGRPCPGGPAPPRHHGPPGPTFFRQQDGLLRGGYEAQEPLCPAVPPRKAVPVTSFTYINEDFRTESPPSPSSDVEDAREQRAHNAHLRGPPPKLIPVSGKLEKNMEKILIRPTAFKPVLPKPRGAPSLPSFMGPRATGLSGSQGSLTQLFGGPASSSSSSSSSSAADKPLAFSGWASGCPSGTLSDSGRNSLSSLPTYSTGGAEPTTSSPGGHLPSHGSGRGALPGPARGVPTGPSHSDSGRSSSSKSTGSLGGRVAGGLLGSGTRASPDSSSCGERSPPPPPPPPSDEALLHCVLEGKLRDREAELQQLRDSLDENEATMCQAYEERQRHWQREREALREDCAAQAQRAQRAQQLLQLQVFQLQQEKRQLQDDFAQLLQEREQLERRCATLEREQRELGPRLEETKWEVCQKSGEISLLKQQLKESQAELVQKGSELVALRVALREARATLRVSEGRARGLQEAARARELELEACSQELQRHRQEAEQLREKAGQLDAEAAGLREPPVPPATADPFLLAESDEAKVQRAAAGVGGSLRAQVERLRVELQRERRRGEEQRDSFEGERLAWQAEKEQVIRYQKQLQHNYIQMYRRNRQLEQELQQLSLELEARELADLGLAEQAPCICLEEITATEI
B6: MCM6 (protein, UniProt Q14566 1-821)
chain: MDLAAAAEPGAGSQHLEVRDEVAEKCQKLFLDFLEEFQSSDGEIKYLQLAEELIRPERNTLVVSFVDLEQFNQQLSTTIQEEFYRVYPYLCRALKTFVKDRKEIPLAKDFYVAFQDLPTRHKIRELTSSRIGLLTRISGQVVRTHPVHPELVSGTFLCLDCQTVIRDVEQQFKYTQPNICRNPVCANRRRFLLDTNKSRFVDFQKVRIQETQAELPRGSIPRSLEVILRAEAVESAQAGDKCDFTGTLIVVPDVSKLSTPGARAETNSRVSGVDGYETEGIRGLRALGVRDLSYRLVFLACCVAPTNPRFGGKELRDEEQTAESIKNQMTVKEWEKVFEMSQDKNLYHNLCTSLFPTIHGNDEVKRGVLLMLFGGVPKTTGEGTSLRGDINVCIVGDPSTAKSQFLKHVEEFSPRAVYTSGKASSAAGLTAAVVRDEESHEFVIEAGALMLADNGVCCIDEFDKMDVRDQVAIHEAMEQQTISITKAGVKATLNARTSILAAANPISGHYDRSKSLKQNINLSAPIMSRFDLFFILVDECNEVTDYAIARRIVDLHSRIEESIDRVYSLDDIRRYLLFARQFKPKISKESEDFIVEQYKHLRQRDGSGVTKSSWRITVRQLESMIRLSEAMARMHCCDEVQPKHVKEAFRLLNKSIIRVETPDVNLDQEEEIQMEVDEGAGGINGHADSPAPVNGINGYNEDINQESAPKASLRLGFSEYCRISNLIVLHLRKVEEEEDESALKRSELVNWYLKEIESEIDSEEELINKKRIIEKVIHRLTHYDHVLIELTQAGLKGSTEGSESYEEDPYLVVNPNYLLED

Molecular target: T1, CLN7 (human (endogenous in SH-SY5Y))
Assay: affinity purification with mass spectrometry; endogenous CLN7 immunoprecipitated from 2.5 mg SH-SY5Y lysate with a polyclonal anti-CLN7 antibody raised against L9 (351-421aa, Proteintech) on G-sepharose beads; IgG as non-specific binding control; 4 independent replicates; cells under steady state culture conditions

Row | Binder | binding
1 | B1 | binds
2 | B2 | binds
3 | B3 | binds
4 | B4 | binds
5 | B5 | binds
6 | B6 | binds
